Experimental data as given in patent US6365722.
No constants are given. Whether binding was seen depends on the method and setting. Some binding calls cover weakened binding; strength is not graded here.

Protein sequences, listed by entry. Tags and fused reporters are not part of them. Lines headed by an entry give the natural chain unless they say otherwise; changes in a name come on top.
UniProt P04386: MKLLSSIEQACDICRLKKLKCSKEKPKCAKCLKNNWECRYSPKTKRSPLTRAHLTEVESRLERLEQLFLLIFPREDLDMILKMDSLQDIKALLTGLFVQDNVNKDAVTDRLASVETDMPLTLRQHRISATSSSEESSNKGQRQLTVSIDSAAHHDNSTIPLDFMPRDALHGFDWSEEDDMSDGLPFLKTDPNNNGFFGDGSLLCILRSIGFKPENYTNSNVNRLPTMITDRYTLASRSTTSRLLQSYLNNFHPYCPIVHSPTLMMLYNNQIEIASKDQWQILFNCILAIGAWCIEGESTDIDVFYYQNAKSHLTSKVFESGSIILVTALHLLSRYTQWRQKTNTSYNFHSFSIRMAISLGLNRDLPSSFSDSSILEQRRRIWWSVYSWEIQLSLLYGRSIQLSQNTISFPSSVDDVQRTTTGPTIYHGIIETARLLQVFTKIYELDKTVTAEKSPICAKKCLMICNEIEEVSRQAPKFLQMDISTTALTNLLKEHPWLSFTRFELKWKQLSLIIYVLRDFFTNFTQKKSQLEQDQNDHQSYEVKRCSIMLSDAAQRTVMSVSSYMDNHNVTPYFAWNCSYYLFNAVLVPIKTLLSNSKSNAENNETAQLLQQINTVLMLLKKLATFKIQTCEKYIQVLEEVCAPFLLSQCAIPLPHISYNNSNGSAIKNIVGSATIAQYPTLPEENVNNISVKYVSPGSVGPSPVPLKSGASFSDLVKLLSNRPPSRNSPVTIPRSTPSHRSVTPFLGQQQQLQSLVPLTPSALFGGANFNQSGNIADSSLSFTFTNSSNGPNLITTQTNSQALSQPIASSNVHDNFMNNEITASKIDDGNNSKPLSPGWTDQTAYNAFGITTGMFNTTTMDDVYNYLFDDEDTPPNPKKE
UniProt Q60680: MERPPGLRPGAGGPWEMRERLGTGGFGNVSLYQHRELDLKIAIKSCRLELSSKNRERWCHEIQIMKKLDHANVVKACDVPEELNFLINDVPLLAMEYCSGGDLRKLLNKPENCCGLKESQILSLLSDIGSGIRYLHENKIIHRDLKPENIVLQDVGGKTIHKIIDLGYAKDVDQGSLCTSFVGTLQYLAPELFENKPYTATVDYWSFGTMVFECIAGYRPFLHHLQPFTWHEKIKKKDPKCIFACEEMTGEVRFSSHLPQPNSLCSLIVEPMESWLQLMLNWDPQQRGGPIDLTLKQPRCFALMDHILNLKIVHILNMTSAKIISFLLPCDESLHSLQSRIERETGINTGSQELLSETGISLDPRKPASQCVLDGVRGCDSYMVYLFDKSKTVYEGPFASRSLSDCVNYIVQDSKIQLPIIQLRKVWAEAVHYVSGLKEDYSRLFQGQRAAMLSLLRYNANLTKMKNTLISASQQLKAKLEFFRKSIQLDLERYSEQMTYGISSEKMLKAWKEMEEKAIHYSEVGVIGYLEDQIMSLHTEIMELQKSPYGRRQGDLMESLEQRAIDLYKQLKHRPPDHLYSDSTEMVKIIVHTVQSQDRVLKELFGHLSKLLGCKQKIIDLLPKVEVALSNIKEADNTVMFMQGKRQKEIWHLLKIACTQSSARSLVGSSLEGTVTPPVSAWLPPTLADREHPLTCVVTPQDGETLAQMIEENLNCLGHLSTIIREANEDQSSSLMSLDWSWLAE
UniProt Q9UNS2: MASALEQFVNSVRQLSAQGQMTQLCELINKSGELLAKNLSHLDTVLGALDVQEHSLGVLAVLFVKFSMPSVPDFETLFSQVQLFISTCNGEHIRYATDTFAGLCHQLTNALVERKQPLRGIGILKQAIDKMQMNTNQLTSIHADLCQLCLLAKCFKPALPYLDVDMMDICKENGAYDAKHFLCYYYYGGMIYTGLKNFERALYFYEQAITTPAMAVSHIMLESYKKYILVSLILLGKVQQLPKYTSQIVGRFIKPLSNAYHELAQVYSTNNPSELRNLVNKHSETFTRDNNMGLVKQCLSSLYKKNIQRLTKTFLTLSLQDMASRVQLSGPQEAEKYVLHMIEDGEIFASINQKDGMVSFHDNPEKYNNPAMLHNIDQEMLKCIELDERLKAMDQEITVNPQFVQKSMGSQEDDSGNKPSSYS
UniProt P25685: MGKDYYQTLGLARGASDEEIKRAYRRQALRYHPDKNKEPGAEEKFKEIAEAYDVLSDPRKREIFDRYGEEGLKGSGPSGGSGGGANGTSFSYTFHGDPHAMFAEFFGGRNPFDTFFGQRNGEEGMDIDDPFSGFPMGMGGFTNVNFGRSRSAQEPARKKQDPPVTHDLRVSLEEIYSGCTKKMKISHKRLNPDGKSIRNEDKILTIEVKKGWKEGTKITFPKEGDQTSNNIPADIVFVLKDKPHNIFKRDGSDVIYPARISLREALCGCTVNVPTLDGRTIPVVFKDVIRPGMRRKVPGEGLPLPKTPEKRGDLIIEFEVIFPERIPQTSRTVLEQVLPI

Columns and labels:
[1] = target: T1, IKKα bait: 937 bp SnaBI/XhoI fragment of the murine IKKα clone encoding the protein's leucine zipper, helix-loop-helix and carboxyl terminus, in the pGTB9c bait vector (murine) (UniProt P04386+Q60680); assay: yeast two-hybrid, relative interaction strength by colony growth rate
[2] = target: T1, IKKα bait: 937 bp SnaBI/XhoI fragment of the murine IKKα clone encoding the protein's leucine zipper, helix-loop-helix and carboxyl terminus, in the pGTB9c bait vector (murine); assay: yeast two-hybrid, colony growth

| binding [1] | binding [2] | Substance |
| --- | --- | --- |
| binds |  | Y2h clone 70, HuSgn3 (from UniProt Q9UNS2 1-423) |
| binds | binds | Y2h clone 31, Hsp40 (from UniProt P25685 1-340) |
